From PubChem BioAssay AID2685 (National Center for Advancing Translational Sciences (NCATS), 2010)
This is one part of the list. The main result of the screen is listed elsewhere. These columns were measured beside it and carry no call. The list favours compounds with an active or inconclusive main result. Potencies come from curve fits of mixed quality, noted in brackets.

Assay: qHTS Assay for Lipid Storage Modulators in Drosophila S3 Cells;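 for cell number change: cells counted by Cell Tracker Red CMTPX staining in the red channel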
Settings: BODIPY lipid droplet fluorescence, 18-24 h; for cell number change: measured here: cell count max response, cells fed with added oleic acid
Procedure, shortened: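 Drosophila S3 cells loaded with oleic acid (400 uM, as added) and compounds at several concentrations; lipid droplets imaged by 488-nm laser-scanning cytometry, 500–530 nm intensity and object ratio to cell channel. Percent activity normalized to 20 uM Triacsin C.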

[1] = measured here: lipid fluorescence (Fed channel) AC50, cells fed with added oleic acid
[2] = measured here: cell number channel AC50, cells fed with added oleic acid

Structure (SMILES)	cell number change	AC50 [1]	AC50 [2]
CCN(CCNC(=O)C1CCCN(S(=O)(=O)c2cnc[nH]2)C1)c1ccccc1 (configuration not stated)	-1.55%	6.51 µM [rising, single point]	–
COCCNC(=O)C(C)OC(=O)c1cc2sccc2n1C (configuration not stated)	-11.3%	16.4 µM [falling, partial curve]	–
CCc1nnc(NC(=O)c2nc(S(=O)(=O)Cc3cccc(C)c3)ncc2Cl)s1	-26.6%	6.51 µM [falling, partial curve, poor fit]	–
Cn1c(CN2CCCCC2)nc2cc(NC(=O)c3cccc(Br)c3)ccc21	–	0.58 µM [rising, single point]	2.31 µM [rising, partial curve]
CCCC(=O)c1ccc(N2CCN(S(=O)(=O)c3ccc(C)cc3)CC2)c(F)c1	4.49%	16.4 µM [rising, partial curve]	–
O=C(COC(=O)CN1C(=O)C2CCCCC2C1=O)NCc1ccc(Cl)cc1Cl (configuration not stated)	5.94%	–	–
COc1ccc(-n2nnnc2SCC(=O)N2CCOCC2)cc1	11.3%	4.61 µM [falling, full curve]	–
O=C(c1ccco1)N(CCO)Cc1cc2cc3c(cc2[nH]c1=O)OCO3	55%	0.651 µM [rising, single point]	29.1 µM [rising, single point]
CCCCCN(C(=O)CCC(=O)OCc1ccc(C(C)(C)C)cc1)c1c(N)n(CCCC)c(=O)[nH]c1=O	-22%	0.00461 µM [falling, full curve, poor fit]	–
O=C(OCc1cccc2ccccc12)C1CC(=O)N(c2ccccc2)C1 (configuration not stated)	3.66%	20.6 µM [falling, single point]	–
NC(=O)CSc1oc(-c2ccco2)nc1S(=O)(=O)c1ccc(Br)cc1	-2.99%	32.6 µM [rising, single point]	–
O=C(CN1C(=O)CCSc2ccc(S(=O)(=O)N3CCCC3)cc21)Nc1ccccc1	-6.75%	23.1 µM [rising, single point]	–
Cc1cc(C)nc(N/N=C/c2ccccc2OCc2cccc(Br)c2)n1	-33.1%	7.31 µM [rising, partial curve]	13 µM [falling, partial curve]
CCCc1cc(=O)oc2cc(C)cc(OCC(=O)NCC(O)c3ccccc3)c12 (configuration not stated)	-27.2%	0.00461 µM [falling, full curve, poor fit]	–
CCCOc1ccc(NC(=O)c2cc3cc(C)ccc3[nH]2)cc1	-12.9%	3.66 µM [rising, single point]	–
O=[N+]([O-])c1ccc2oc(-c3ccccc3)nc2c1	–	–	2.59 µM [rising, single point]

Two records picked at random from the list so far:
Structure (SMILES)	cell number change	AC50 [1]	AC50 [2]
COCCNC(=O)C(C)OC(=O)c1cc2sccc2n1C (configuration not stated)	-11.3%	16.4 µM [falling, partial curve]	–
CCCc1cc(=O)oc2cc(C)cc(OCC(=O)NCC(O)c3ccccc3)c12 (configuration not stated)	-27.2%	0.00461 µM [falling, full curve, poor fit]	–
